This assay has as its target GFP-WIPI2b RERE (R108E/R128E) mutant (UniProt Q9Y4P8). Put plainly: co-IP; HEK293 cells transfected with the GFP-tagged bait, lysed after 24 hours in TNTE buffer (20 mM Tris-HCl pH 7.4, 150 mM NaCl, 5 mM EDTA, 0.3% Triton X-100); GFP-TRAP beads 2-3 hours at 4°C, 4 washes; endogenous partners immunoblotted. (In western blotting, separated proteins are transferred to a membrane and probed.)

Protein sequences, listed by entry. Tags and fused reporters are not part of them. Lines headed by an entry give the natural chain unless they say otherwise; changes in a name come on top.
UniProt Q9Y4P8: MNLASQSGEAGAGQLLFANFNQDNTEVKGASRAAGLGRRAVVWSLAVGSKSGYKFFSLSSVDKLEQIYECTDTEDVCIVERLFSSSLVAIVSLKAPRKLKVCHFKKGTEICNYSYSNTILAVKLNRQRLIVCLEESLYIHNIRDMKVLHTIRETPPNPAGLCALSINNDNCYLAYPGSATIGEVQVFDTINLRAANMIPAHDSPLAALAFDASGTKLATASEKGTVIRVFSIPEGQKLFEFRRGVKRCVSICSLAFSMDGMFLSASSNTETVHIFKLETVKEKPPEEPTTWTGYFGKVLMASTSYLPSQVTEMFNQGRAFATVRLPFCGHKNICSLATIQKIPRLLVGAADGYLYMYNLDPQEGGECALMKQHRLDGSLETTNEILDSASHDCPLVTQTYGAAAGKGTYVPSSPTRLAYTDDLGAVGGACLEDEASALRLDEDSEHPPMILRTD
UniProt Q9BSU1: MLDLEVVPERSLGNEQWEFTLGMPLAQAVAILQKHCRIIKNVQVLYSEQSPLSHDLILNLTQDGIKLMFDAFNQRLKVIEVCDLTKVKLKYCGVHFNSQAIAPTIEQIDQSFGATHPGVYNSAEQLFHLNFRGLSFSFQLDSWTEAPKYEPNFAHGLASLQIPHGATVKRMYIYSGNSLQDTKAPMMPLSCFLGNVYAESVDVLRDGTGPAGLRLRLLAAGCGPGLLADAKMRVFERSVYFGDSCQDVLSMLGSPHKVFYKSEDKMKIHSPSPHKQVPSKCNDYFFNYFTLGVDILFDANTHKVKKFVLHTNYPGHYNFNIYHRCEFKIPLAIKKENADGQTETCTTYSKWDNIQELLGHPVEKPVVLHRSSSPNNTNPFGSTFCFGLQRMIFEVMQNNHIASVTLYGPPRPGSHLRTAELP

The text below walks through data of paper PMC11291266.

No constants are given. Whether binding was seen depends on the method and setting. In cells and extracts the contact can be indirect.

For the substance “endogenous MYTHO (from UniProt Q9BSU1 1-422)”, the binding result is on record as “no binding”.
